Data from the supplement of paper PMC10077471.
Over roughly 1,900 compounds, “excess over highest single agent (ExcessHSA) synergy score, 6x6 matrix” has its median near -83; the lowest 2% begin near -370. The list shows a part of the results.

Test system: NCI-H446
Experiment: excess over highest single agent (ExcessHSA) synergy score, 6x6 matrix; higher = less synergy (more negative = stronger synergy)
Settings: 72 h; CellTiter-Glo viability

Row | Structure (SMILES) | excess over highest single agent
1 | NC1=N[C@@]2(c3cc(NC(=O)c4ccc(F)cn4)ccc3F)COC[C@H]2CS1 + Cc1sc2c(c1C)C(c1ccc(Cl)cc1)=N[C@@H](CC(=O)OC(C)(C)C)c1nnc(C)n1-2 [NCGC00250412-19] | -165
2 | N=C1S/C(=C\c2ccc(-c3ccc4c(c3)C(=O)NC4=O)o2)C(=O)N1c1ccc(Br)cc1 + Cc1sc2c(c1C)C(c1ccc(Cl)cc1)=N[C@@H](CC(=O)OC(C)(C)C)c1nnc(C)n1-2 [NCGC00250412-19] | 122
3 | CN(C)CCC(c1ccc(Cl)cc1)c1ccccn1 (configuration not stated) + Cc1sc2c(c1C)C(c1ccc(Cl)cc1)=N[C@@H](CC(=O)OC(C)(C)C)c1nnc(C)n1-2 [NCGC00250412-19] | -263
4 | CCC(=O)NCC[C@@H]1CCc2ccc3c(c21)CCO3 + Cc1sc2c(c1C)C(c1ccc(Cl)cc1)=N[C@@H](CC(=O)OC(C)(C)C)c1nnc(C)n1-2 [NCGC00250412-19] | 35.5
5 | COc1ccc(-c2coc3cc(O)cc(O)c3c2=O)cc1 + Cc1sc2c(c1C)C(c1ccc(Cl)cc1)=N[C@@H](CC(=O)OC(C)(C)C)c1nnc(C)n1-2 [NCGC00250412-19] | -134
6 | C=CC(=O)N1CCc2ccc(-n3c(=O)ccc4cnc5ccc(-c6cnn(C)c6)cc5c43)cc21 + Cc1sc2c(c1C)C(c1ccc(Cl)cc1)=N[C@@H](CC(=O)OC(C)(C)C)c1nnc(C)n1-2 [NCGC00250412-19] | -132
7 | O=C(NC1CCNCC1)c1n[nH]cc1NC(=O)c1c(Cl)cccc1Cl + Cc1sc2c(c1C)C(c1ccc(Cl)cc1)=N[C@@H](CC(=O)OC(C)(C)C)c1nnc(C)n1-2 [NCGC00250412-19] | -145
8 | CC(C)c1noc(N2CCC(COc3ccc(-c4ccc(S(C)(=O)=O)cc4)nc3)CC2)n1 + Cc1sc2c(c1C)C(c1ccc(Cl)cc1)=N[C@@H](CC(=O)OC(C)(C)C)c1nnc(C)n1-2 [NCGC00250412-19] | 12.5
9 | COc1ccc(CC2NCCc3cc(OC)c(OC)cc32)cc1OC (configuration not stated) + Cc1sc2c(c1C)C(c1ccc(Cl)cc1)=N[C@@H](CC(=O)OC(C)(C)C)c1nnc(C)n1-2 [NCGC00250412-19] | -81.7
10 | CCCCCCCCCCCCCC(=O)N[C@H](CO)[C@H](O)c1ccc([N+](=O)[O-])cc1 + Cc1sc2c(c1C)C(c1ccc(Cl)cc1)=N[C@@H](CC(=O)OC(C)(C)C)c1nnc(C)n1-2 [NCGC00250412-19] | -104
11 | COc1ccc(Nc2cc(-c3cnc(N)nc3)nc(N3CCOCC3)n2)cn1 + Cc1sc2c(c1C)C(c1ccc(Cl)cc1)=N[C@@H](CC(=O)OC(C)(C)C)c1nnc(C)n1-2 [NCGC00250412-19] | 3.49
12 | CC[C@H](Nc1ncnc2[nH]cnc12)c1nc2cccc(F)c2c(=O)n1-c1ccccc1 + Cc1sc2c(c1C)C(c1ccc(Cl)cc1)=N[C@@H](CC(=O)OC(C)(C)C)c1nnc(C)n1-2 [NCGC00250412-19] | -121
13 | CCCC(CCC)C(=O)O + Cc1sc2c(c1C)C(c1ccc(Cl)cc1)=N[C@@H](CC(=O)OC(C)(C)C)c1nnc(C)n1-2 [NCGC00250412-19] | 14.8
14 | CN(C)CCCC1(c2ccc(F)cc2)OCc2cc(C#N)ccc21 (configuration not stated) + Cc1sc2c(c1C)C(c1ccc(Cl)cc1)=N[C@@H](CC(=O)OC(C)(C)C)c1nnc(C)n1-2 [NCGC00250412-19] | -117
15 | CN(C)[C@@H](CCOc1cccc2ccccc12)c1ccccc1 + Cc1sc2c(c1C)C(c1ccc(Cl)cc1)=N[C@@H](CC(=O)OC(C)(C)C)c1nnc(C)n1-2 [NCGC00250412-19] | -59.8
16 | COC[C@@H](c1ccc(C(F)(F)F)cc1)N1CCN(C2(C)CCN(C(=O)c3c(C)ncnc3C)CC2)C[C@@H]1C + Cc1sc2c(c1C)C(c1ccc(Cl)cc1)=N[C@@H](CC(=O)OC(C)(C)C)c1nnc(C)n1-2 [NCGC00250412-19] | -160
17 | Cc1onc(-c2ccccc2)c1C(=O)N[C@@H]1C(=O)N2[C@@H]1SC(C)(C)[C@@H]2C(=O)O + Cc1sc2c(c1C)C(c1ccc(Cl)cc1)=N[C@@H](CC(=O)OC(C)(C)C)c1nnc(C)n1-2 [NCGC00250412-19] | -4.12
18 | CCCCCC[C@H]1C(=O)O[C@H](C)[C@H](NC(=O)c2cccc(NC=O)c2O)C(=O)O[C@@H](C)[C@@H]1OC(=O)CC(C)C + Cc1sc2c(c1C)C(c1ccc(Cl)cc1)=N[C@@H](CC(=O)OC(C)(C)C)c1nnc(C)n1-2 [NCGC00250412-19] | -39
19 | C[C@H]1[C@@H](CC(C[C@H]2O[C@@H]3O[C@]4(C)CC[C@H]5[C@H](C)CC[C@@H]([C@H]2C)[C@@]35OO4)CS(=O)(=O)c2ccc(COC(=O)N(C)C)cc2)O[C@@H]2O[C@]3(C)CC[C@H]4[C@H](C)CC[C@@H]1[C@@]24OO3 (some centres not stated) + Cc1sc2c(c1C)C(c1ccc(Cl)cc1)=N[C@@H](CC(=O)OC(C)(C)C)c1nnc(C)n1-2 [NCGC00250412-19] | -299

Row | Structure (SMILES) | excess over highest single agent
20 | CO[C@H]1C(=O)[C@]2(C)[C@@H](OC)C[C@H]3OC[C@@]3(OC(C)=O)[C@H]2[C@H](OC(=O)c2ccccc2)[C@]2(O)C[C@H](OC(=O)[C@H](O)[C@@H](NC(=O)OC(C)(C)C)c3ccccc3)C(C)=C1C2(C)C + Cc1sc2c(c1C)C(c1ccc(Cl)cc1)=N[C@@H](CC(=O)OC(C)(C)C)c1nnc(C)n1-2 [NCGC00250412-19] | -412
21 | Cc1ccc(CN2CCNCC2)cc1NC(=O)CNc1ccc(F)c(F)c1 + Cc1sc2c(c1C)C(c1ccc(Cl)cc1)=N[C@@H](CC(=O)OC(C)(C)C)c1nnc(C)n1-2 [NCGC00250412-19] | -10.7
22 | O=S(=O)(O)CCSSCCS(=O)(=O)O + Cc1sc2c(c1C)C(c1ccc(Cl)cc1)=N[C@@H](CC(=O)OC(C)(C)C)c1nnc(C)n1-2 [NCGC00250412-19] | -56.3
23 | Clc1ccccc1C(c1ccccc1)(c1ccccc1)n1ccnc1 + Cc1sc2c(c1C)C(c1ccc(Cl)cc1)=N[C@@H](CC(=O)OC(C)(C)C)c1nnc(C)n1-2 [NCGC00250412-19] | -102
24 | NC(=O)NO + Cc1sc2c(c1C)C(c1ccc(Cl)cc1)=N[C@@H](CC(=O)OC(C)(C)C)c1nnc(C)n1-2 [NCGC00250412-19] | -18.6
25 | C[C@]12CC[C@@H]3c4ccc(O)cc4CC[C@H]3[C@@H]1[C@@H](O)[C@@H](O)[C@@H]2O + Cc1sc2c(c1C)C(c1ccc(Cl)cc1)=N[C@@H](CC(=O)OC(C)(C)C)c1nnc(C)n1-2 [NCGC00250412-19] | -91
26 | Clc1ccc(COC(Cn2ccnc2)c2ccc(Cl)cc2Cl)cc1 (configuration not stated) + Cc1sc2c(c1C)C(c1ccc(Cl)cc1)=N[C@@H](CC(=O)OC(C)(C)C)c1nnc(C)n1-2 [NCGC00250412-19] | 81.4
27 | CCc1cc(/C(C)=N/OCc2ccc(C3CCCCC3)c(C(F)(F)F)c2)ccc1CN1CC(C(=O)O)C1 + Cc1sc2c(c1C)C(c1ccc(Cl)cc1)=N[C@@H](CC(=O)OC(C)(C)C)c1nnc(C)n1-2 [NCGC00250412-19] | -115
28 | C[C@@H]1CC[C@@]2(OC1)OC1CC3C4CC=C5CC(O)CCC5(C)C4CCC3(C)C1[C@@H]2C (some centres not stated) + Cc1sc2c(c1C)C(c1ccc(Cl)cc1)=N[C@@H](CC(=O)OC(C)(C)C)c1nnc(C)n1-2 [NCGC00250412-19] | -38
29 | Cc1cc(CS(=O)(=O)c2ccccc2)cc(OCc2ccc(CN3CCC[C@@H]3CO)cc2)c1 + Cc1sc2c(c1C)C(c1ccc(Cl)cc1)=N[C@@H](CC(=O)OC(C)(C)C)c1nnc(C)n1-2 [NCGC00250412-19] | -3.45
30 | CCn1c(-c2nonc2N)nc2cnc(Oc3cccc(NC(=O)c4ccc(OCCN5CCOCC5)cc4)c3)cc21 + Cc1sc2c(c1C)C(c1ccc(Cl)cc1)=N[C@@H](CC(=O)OC(C)(C)C)c1nnc(C)n1-2 [NCGC00250412-19] | -134
31 | COc1cc2c(cc1OC)CN(CCc1ccc(NC(=O)c3cccc4c(=O)c5cccc(OC)c5[nH]c34)cc1)CC2 + Cc1sc2c(c1C)C(c1ccc(Cl)cc1)=N[C@@H](CC(=O)OC(C)(C)C)c1nnc(C)n1-2 [NCGC00250412-19] | 86.7
32 | O=P(O)(O)C(O)(Cc1cccnc1)P(=O)(O)O + Cc1sc2c(c1C)C(c1ccc(Cl)cc1)=N[C@@H](CC(=O)OC(C)(C)C)c1nnc(C)n1-2 [NCGC00250412-19] | -14.6
33 | CC(=O)O[C@@]12CO[C@@H]1C[C@H](O)[C@@]1(C)C(=O)[C@H](O)C3=C(C)[C@@H](O)C[C@@](O)([C@@H](OC(=O)c4ccccc4)[C@H]21)C3(C)C + Cc1sc2c(c1C)C(c1ccc(Cl)cc1)=N[C@@H](CC(=O)OC(C)(C)C)c1nnc(C)n1-2 [NCGC00250412-19] | -157
34 | Cc1c(O)cccc1C(=O)N[C@@H](CSc1ccccc1)[C@H](O)CN1C[C@H]2CCCC[C@H]2C[C@H]1C(=O)NC(C)(C)C + Cc1sc2c(c1C)C(c1ccc(Cl)cc1)=N[C@@H](CC(=O)OC(C)(C)C)c1nnc(C)n1-2 [NCGC00250412-19] | -25.1
35 | Cc1nc(-c2ccc(-c3ccc(C(=O)N4CCc5cc6c(cc54)C4(CCN(C)CC4)CO6)cc3)c(C)c2)no1 + Cc1sc2c(c1C)C(c1ccc(Cl)cc1)=N[C@@H](CC(=O)OC(C)(C)C)c1nnc(C)n1-2 [NCGC00250412-19] | -231
36 | Cc1cccc(Nc2nc(-c3ccncc3)cs2)c1 + Cc1sc2c(c1C)C(c1ccc(Cl)cc1)=N[C@@H](CC(=O)OC(C)(C)C)c1nnc(C)n1-2 [NCGC00250412-19] | -277
37 | Nc1ccn([C@@H]2O[C@H](CO)[C@@H](O)[C@H]2O)c(=O)n1 + Cc1sc2c(c1C)C(c1ccc(Cl)cc1)=N[C@@H](CC(=O)OC(C)(C)C)c1nnc(C)n1-2 [NCGC00250412-19] | -268

Reprinted at random: two entries already listed
Row | Structure (SMILES) | excess over highest single agent
22 | O=S(=O)(O)CCSSCCS(=O)(=O)O + Cc1sc2c(c1C)C(c1ccc(Cl)cc1)=N[C@@H](CC(=O)OC(C)(C)C)c1nnc(C)n1-2 [NCGC00250412-19] | -56.3
26 | Clc1ccc(COC(Cn2ccnc2)c2ccc(Cl)cc2Cl)cc1 (configuration not stated) + Cc1sc2c(c1C)C(c1ccc(Cl)cc1)=N[C@@H](CC(=O)OC(C)(C)C)c1nnc(C)n1-2 [NCGC00250412-19] | 81.4
